The list shows a part of the results. These are further read-outs of the screen, such as a control signal, another cell line or another target. No call is given for them. Most of these compounds were active or inconclusive in the main read-out, so they are no random draw. Words in brackets tell the shape of the fitted curve; partial curves, single points and poor fits give uncertain potencies.
Assay: IkB Signaling
Conditions: ABC-DLBCL IkBa-CBG/CBR dual luciferase ratio (green luciferase fused to IkBa over red control in OCI-Ly3 lymphoma cells), 4 h
Method in brief: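 Curves were fitted separately to fusion (green), unfused (red) and ratio luminescence, then classed by r2, magnitude and activity. Cells: OCI-Ly3, 4 h compound plus doxycycline at 37C; 10 uM MG-132 defined full response.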

[1] = measured here: control luc red channel unless noted

COc1ccc(NS(=O)(=O)c2cc(C)ccc2NC(=O)c2cc(C)oc2C)cc1
AC50 [1]: 3.16 µM [rising, full curve] [measured here: IkB-luc green channel]

COc1ccc(OC)c(NC(=O)C2Cc3ccccc3CN2S(=O)(=O)c2ccc(F)cc2)c1 (stereo not drawn)
AC50 [1]: 25.1 µM [falling, single point]

CCc1ccc(CNC(=O)c2cc3n(n2)CCCN(Cc2ccccc2)C3=O)cc1
AC50 [1]: 20 µM [falling, single point]

Cc1ccc(-n2ncc3c(NC(C)c4ccccc4)ncnc32)cc1 (stereo not drawn)
AC50 [1]: 25.1 µM [falling, single point]

c1ccc(C(c2ccccc2)N2CCN(Cc3nnnn3C3CCCC3)CC2)cc1
AC50 [1]: 25.1 µM [falling, single point]

COc1ccc(NC(=O)Cn2c(=O)n(Cc3ccccc3OC)c(=O)c3cccnc32)cc1Cl
AC50 [1]: 25.1 µM [falling, single point]

COC(=O)CSc1nnc(CNc2ccc(F)cc2)o1
AC50 [1]: 12.6 µM [falling, partial curve]

COc1ccc(C2(Nc3cccc(F)c3)C(=O)c3ccccc3C2=O)cc1
AC50 [1]: 0.398 µM [falling, partial curve, poor fit]

COCCNC(=O)C1CCN(C(=O)c2cc3sccc3n2Cc2ccc(Cl)cc2)CC1
AC50 [1]: 0.398 µM [falling, partial curve]

O=C(c1nnc(Cc2ccc(Cl)cc2)o1)N1CCOCC1
AC50 [1]: 6.31 µM [rising, single point]

COc1ccccc1CCNC(=O)Cc1ccc(NC(=O)N2CCSc3ncccc32)cc1
AC50 [1]: 39.8 µM [falling, single point]

Cc1ccc2oc(-c3ccc(Cl)c(NC(=O)Cc4ccccc4)c3)nc2c1
AC50 [1]: 20 µM [falling, single point]

CCCNS(=O)(=O)c1cc(-c2nn3c(C)nnc3c3ccccc23)ccc1C
AC50 [1]: 10 µM [rising, partial curve] [measured here: IkB-luc green channel]

CC(=O)N1CCCc2cc(S(=O)(=O)N3CCCC(C(=O)NCc4ccccc4Cl)C3)ccc21 (stereo not drawn)
AC50 [1]: 2.51 µM [falling, partial curve, poor fit]

CCOc1ccccc1NC(=O)C1CCN(S(=O)(=O)c2ccc3[nH]c(=O)oc3c2)CC1
AC50 [1]: 25.1 µM [falling, single point]

O=C(NCCN1CCN(c2ccccc2F)CC1)C1c2ccccc2C(=O)N2CCc3ccccc3C12 (stereo not drawn)
AC50 [1]: 10 µM [falling, partial curve]

CC(C)(C)c1ccc(OCc2nc3ccccc3n2CCOc2ccccc2)cc1
AC50 [1]: 20 µM [falling, partial curve]

Cc1cccc(NC(=O)CSc2ncc(-c3ccccc3)[nH]2)c1C
AC50 [1]: 10 µM [falling, partial curve]

CCC(C(=O)NCCc1ccccc1)n1nc(C)c2sc3ccccc3c2c1=O (stereo not drawn)
AC50 [1]: 3.98 µM [falling, partial curve]

CC(C)Nc1c(N)c(=O)oc2ccccc12
AC50 [1]: 10 µM [falling, partial curve]

COCCn1nnnc1C(c1cc2cc(C)cc(C)c2[nH]c1=O)N1CCN(c2ccccc2F)CC1 (stereo not drawn)
AC50 [1]: 10 µM [falling, partial curve]

COc1ccc(-c2cc(C(=O)NCc3ccccc3)no2)cc1OC
AC50 [1]: 1.26 µM [falling, full curve]

Cc1ccc(N2C(=O)c3n[nH]c(C)c3C2c2ccc(Cl)cc2)cc1 (stereo not drawn)
AC50 [1]: 25.1 µM [falling, partial curve]

Cc1ccc(CNC(=O)c2nn(-c3ccc(Cl)cc3)nc2CO)cc1
AC50 [1]: 0.126 µM [rising, full curve]

CCOC(=O)c1[nH]c2c(c1Cc1ccccc1OC)C(=O)CC(c1ccc(OC)cc1)C2 (stereo not drawn)
AC50 [1]: 3.16 µM [falling, full curve]

CCOc1ccc(C2=CS/C(=C(\C#N)c3nnc4n3CCCCC4)N2CC)cc1
AC50 [1]: 20 µM [falling, partial curve]

CCOC(=O)c1ccccc1NC(=O)Cn1ncc2c1-c1ccccc1OC2
AC50 [1]: 20 µM [falling, single point]

Cc1ccc(NC(=O)Cn2nc(C(F)(F)F)c3c2CCCC3)cc1C
AC50 [1]: 15.8 µM [falling, single point]

N=C1N=C(N)c2cc3ccccc3cc21
AC50 [1]: 39.8 µM [rising, partial curve] [measured here: IkB-luc green channel]

Cc1ccsc1C=Nc1ccc(O)cc1
AC50 (measured here: IkB-luc green channel): 3.98 µM [rising, single point] | AC50 (measured here: control luc red channel): 20 µM [falling, partial curve]

CCc1ccccc1NS(=O)(=O)c1ccc2nc(-c3ccccc3)[nH]c2c1
AC50 [1]: 10 µM [falling, partial curve]

CC(C)OCCCNC(=O)C(=O)Nc1c2c(nn1-c1ccccc1)CS(=O)(=O)C2
AC50 [1]: 5.01 µM [rising, full curve, poor fit]

CCOc1ccc2[nH]c(=O)c(C(c3nnnn3Cc3ccco3)N3CCCC(C)C3)cc2c1 (stereo not drawn)
AC50 [1]: 25.1 µM [falling, partial curve]

Cc1ccc2c(c1)N(CC(=O)NCCc1ccccc1)C(=O)CO2
AC50 [1]: 0.2 µM [rising, full curve, poor fit]

COc1ccccc1Nc1nc(N)nc(CN2CCC(Cc3ccccc3)CC2)n1
AC50 [1]: 12.6 µM [falling, partial curve, poor fit]

COc1ccc(-c2nc3ccccc3n3c(-c4cccc(C)c4)c4c(=O)n(C)c(=O)n(C)c4c23)cc1OC
AC50 [1]: 12.6 µM [falling, partial curve]

CC1CCN(S(=O)(=O)c2ccc(NC(=O)c3cccs3)cc2)CC1
AC50 [1]: 25.1 µM [falling, partial curve]

O=C(Cn1c(=O)n(CCc2ccccc2)c(=O)c2cccnc21)Nc1ccc(F)cc1
AC50 [1]: 0.794 µM [falling, partial curve]

CCCCNC(=O)CSc1nc2cc3c(cc2c(=O)n1CCCC(=O)NCCc1ccc(OC)c(OC)c1)OCO3
AC50 [1]: 0.501 µM [rising, partial curve]

CC1=C(C(=O)OC2CCCC2)C(c2c(Cl)cccc2Cl)CC(=O)N1 (stereo not drawn)
AC50 [1]: 39.8 µM [falling, single point]

CCc1ccc2oc(=O)cc(CN3CCN(c4ccc(F)cc4)CC3)c2c1
AC50 [1]: 6.31 µM [falling, partial curve]

Cc1cc(S(=O)(=O)C(CNC(=O)c2ccc(F)c(F)c2)c2cccs2)ccc1F (stereo not drawn)
AC50 [1]: 20 µM [falling, single point]

COc1ccc(C(=O)COC(=O)CCCn2c(=O)oc3ccccc32)cc1
AC50 [1]: 25.1 µM [falling, single point]

Cc1ccc(NC(=O)c2ccccc2O)cc1
AC50 [1]: 15.8 µM [falling, partial curve]

CC(=O)N1CCCc2cc(S(=O)(=O)N3CCCC(C(=O)N4CCN(c5ccccc5)CC4)C3)ccc21 (stereo not drawn)
AC50 [1]: 31.6 µM [falling, partial curve]

Cc1ccc(-c2ccc(=O)n(CC(=O)NCCc3ccccc3)n2)cc1
AC50 [1]: 39.8 µM [falling, single point]

O=S(=O)(NCCc1csc2nc(-c3ccccc3)nn12)c1cc(F)ccc1F
AC50 [1]: 39.8 µM [falling, single point]

Cc1ccc(NC(=O)C(=O)NCC(c2cccnc2)N2CCN(Cc3ccccc3)CC2)cc1F (stereo not drawn)
AC50 [1]: 20 µM [falling, single point]

Cc1cccc(/C=C/c2onc(C)c2S(=O)(=O)N2CCC(C(=O)N3CCCCC3)CC2)c1
AC50 [1]: 31.6 µM [falling, partial curve, poor fit]

COc1ccc(-c2[nH]c(-c3ccc(Cl)cc3)nc2SCC(=O)NCC2CCCO2)cc1 (stereo not drawn)
AC50 [1]: 25.1 µM [falling, partial curve]

CCc1ccccc1NS(=O)(=O)c1ccc2[nH]cc(C(=O)N(CC)Cc3ccccc3)c(=O)c2c1
AC50 [1]: 15.8 µM [falling, partial curve]

Cc1ccc(C)c(N2CCN(S(=O)(=O)c3ccc4c(c3)C(C(C)C)C(=O)N4)CC2)c1 (stereo not drawn)
AC50 [1]: 12.6 µM [falling, partial curve]

CCc1ccc(C2CC(=O)c3c([nH]c(C(=O)OC4CCCC4)c3C)C2)cc1 (stereo not drawn)
AC50 [1]: 3.16 µM [rising, single point]

COc1cccc(-c2nc(CS(=O)(=O)CC(=O)N3CCN(c4cc(C)ccc4C)CC3)c(C)o2)c1
AC50 [1]: 10 µM [falling, partial curve]

COc1ccc(OC)c(C2CC(=O)Nc3c2c(=O)[nH]c2ncnn32)c1 (stereo not drawn)
AC50 [1]: 0.0251 µM [rising, full curve]

COc1ccc(C2NC(=O)N(C)C3=C2C(=O)N(c2ccc(C(=O)O)cc2)C3)cc1 (stereo not drawn)
AC50 [1]: 5.01 µM [rising, partial curve]

CCC(C(=O)N1CCN(c2cccc(Cl)c2)CC1)c1ccccc1 (stereo not drawn)
AC50 [1]: 10 µM [falling, partial curve]

Cc1ccc2c(CNCc3ccc(C)o3)c(C(=O)O)n(Cc3ccccc3C)c2c1
AC50 [1]: 25.1 µM [falling, single point]

COC(=O)c1ccccc1NC(=O)C1=CC(c2cccs2)=NS(=O)(=O)N1C
AC50 [1]: 20 µM [falling, single point]

Cc1ccc(S(=O)(=O)c2nnn(-c3ccc(F)c(Cl)c3)c2N)cc1
AC50 [1]: 25.1 µM [falling, partial curve]

CCOc1ccc2nc(N3CCCC(C(=O)NCCc4ccc(OCC)c(OCC)c4)C3)sc2c1 (stereo not drawn)
AC50 [1]: 20 µM [falling, partial curve]

Cc1cccc(C)c1Nc1c(-c2ccccn2)nc2c(C)cccn12
AC50 [1]: 2.51 µM [falling, full curve, poor fit]

From PubChem BioAssay AID445 (National Center for Advancing Translational Sciences (NCATS), 2006)
